Among all 47,000 compounds or so, about 200 (0.43%) were called active. Inconclusive means that the source gave no clear call. Such entries were picked first, then a sample of the others.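 Rule for the calls: active = inhibition of aggregate fluorescence above about 70%, also judged a hit by eye on the cell image (limit read from the data, passing the limit was not always enough); inconclusive = no rule stated for this call; inactive = not judged a hit on image review.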
assay: clearance of mutant huntingtin inclusions, primary screen, imaging, HeLa Exon1htt(103Q)mCFP, confocal imaging (AID 853); settings: aggregate imaging, at 1.5 µM, stronger effect = higher value, zero = plate's median compound well;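 note: cells exposed to compound for three days before fixation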

SMILES	inhibition
CCN(CC)C(=O)CCNS(=O)(=O)c1ccc(C)cc1	inactive: 10.9%
CN(C)CCCOC(=O)c1ccccc1Cl	active: 73%
COc1ccc(N2C(=O)c3cccc4cccc(c34)C2=O)nn1	inconclusive: 92.3%
COc1ccc(-n2nnnc2SCc2nc3ccccc3s2)cc1	inactive: -1.5%
COc1ccc(-n2c(C)c(C(C)=O)c3cc(O)ccc32)cc1	inconclusive: 88.5%
CC(=O)NC(C)c1nc2ccccc2n1Cc1ccccc1F (stereo not drawn)	active: 76.4%
COc1ccc(C(=O)CSc2nc3nc(C)cc(C)n3n2)cc1OC	inactive: -72.8%
Cc1cc(C(=O)CSc2nnc(-c3ccc(F)cc3)o2)c(C)n1CC1CCCO1 (stereo not drawn)	inconclusive: 78%
Cc1occc1C(=O)Nc1ccccc1NC(=O)c1ccoc1C	inactive: 31.5%
COc1cc(NC(=O)c2cc3ccccc3o2)c(OC)cc1Cl	inactive: 0.2%
O=C(N/C(=C/c1ccc(Br)cc1)c1nc2ccccc2[nH]1)c1ccco1	active: 80%
COc1cc(C(=O)Nc2cc(C)ccn2)cc(OC)c1OC	inconclusive: 75.7%
c1cncc(-c2csc(NCc3ccco3)n2)c1	inactive: 11.1%
C=CCN1C(=Nc2cccnc2)SCC1(O)c1ccc(C)cc1 (stereo not drawn)	inactive: -47.4%
Cc1ccc(N2CCCCn3c2nc2c3c(=O)n(CC(=O)O)c(=O)n2C)cc1	inactive: -0.1%
O=C1C2=C(Nc3ccccc3SC2c2ccco2)c2ccccc21 (stereo not drawn)	active: 73.7%
O=C(CSc1nc(-c2ccc(F)cc2)cc(C(F)(F)F)n1)NCc1ccco1	inconclusive: 72.2%
CCCCC(=O)C1=C(N2CCCC2)CC(C)(C)CC1=O	active: 71.5%
CC(=O)Nc1nc(C)nc(C)c1C(C)=O	inactive: -37.1%
Cc1ccc(OCC(O)CN2CCN(c3ccccc3)CC2)cc1 (stereo not drawn)	inconclusive: 71.4%
Cc1ccc(C2CC(=O)N(c3ccc(F)cc3)C3=C2C(=O)CCC3)cc1 (stereo not drawn)	active: 79.4%
COCc1cc(Sc2ccc(Cl)cc2Cl)nc(-c2ccccc2)n1	inactive: -19.3%
O=C(CSc1nnc(-c2ccccc2)n1Cc1ccco1)Nc1ccc(S(=O)(=O)N2CCCC2)cc1	active: 83.8%
CCN(CC)Cc1c(O)ccc2c([N+](=O)[O-])c(C)n(-c3ccc(OC)cc3)c12	active: 70.6%
O=C(O)CCN1C(=O)c2ccccc2C1=O	inconclusive: 70.3%

SMILES	inhibition
CN(CC(=O)Nc1ccccc1Cl)C(=O)COC(=O)CNC(=O)c1ccc(Br)o1	inactive: -53.1%
Cc1ccc(-n2c(SCC(=O)Nc3ccc4c(c3)OCCO4)nnc2-c2ccco2)cc1	active: 72.5%
Cc1cccc(NC(=O)Cc2noc3ccccc23)c1	active: 84%
Cc1nc2ccc(NC(=O)c3ccc(Cl)s3)cc2s1	inactive: -285%
O=[N+]([O-])c1cc(-c2n[nH]c(-c3ccccc3)n2)cc([N+](=O)[O-])c1	inconclusive: 76.6%
CCN(CC)Cc1cc(CC(C(N)=O)C(N)=O)ccc1OC	inconclusive: 84.8%
Cc1nnc(SCC(=O)Nc2ccc(Br)cn2)[nH]c1=O	inactive: -50.9%
Cc1ccc(C)c(N2CCN(C(=O)C3CCCN(S(=O)(=O)c4cnc[nH]4)C3)CC2)c1 (stereo not drawn)	inconclusive: 81.4%
Cn1c(=O)c2c(nc(N3CCN(c4ccccn4)CC3)n2Cc2ccc(Cl)cc2Cl)n(C)c1=O	inconclusive: 90.3%
COc1ccc(C(CC(=O)O)NC(=O)c2ccco2)cc1OC (stereo not drawn)	inactive: 51.5%
CS(=O)(=O)N1CCN(C(=O)c2cc(-c3ccncc3)nc3ccc(Cl)cc23)CC1	inactive: -31.4%
Cc1ccc2nc(C(F)OC(F)(F)F)[nH]c2c1 (stereo not drawn)	active: 72.6%
Cc1cc(C)n(CCc2nc(-c3ccc(C)o3)cs2)n1	inactive: -31.2%
O=C(OCc1nnc(-c2ccccc2)o1)c1ccc(S(=O)(=O)NCc2ccco2)cc1	active: 71.3%
COc1ccc(C2NC(=O)c3ccccc3O2)c(OC)c1OC (stereo not drawn)	inconclusive: 79.1%
O=C(NC1CCCC1)C1C2C=CC(C2)C1C(=O)N1CCOCC1 (stereo not drawn)	active: 77.5%
O=C(CCn1c(=O)oc2ccccc21)N(Cc1ccccc1)c1ccccn1	active: 72.8%
Cc1nnc(SCCn2c(N3CCC(C)CC3)nc3c2c(=O)[nH]c(=O)n3C)s1	inconclusive: 81%
CCc1c(C)c2ccc(OCC(N)=O)cc2oc1=O	inconclusive: 75%
CCc1nc2c(cnn2-c2ccc(F)cc2)c(=O)n1-c1ccc(N2CCC(C)CC2)cc1	inactive: 17.9%
COC(=O)c1cc(CC(=O)c2ccc(O)cc2O)c(C)o1	inconclusive: 80.1%
O=C(Oc1cncc(Cl)c1)c1ccco1	inconclusive: 80.9%
COc1ccc(OCC(=O)Nc2ccc(S(=O)(=O)N3CCOCC3)cc2)cc1	active: 87%
CC(C)Cn1c(SCC(=O)c2ccc(Cl)s2)nnc1-c1ccco1	inactive: 14.4%
N#Cc1nc(N2CCCC2)nc(N2CCCC2)n1	active: 72.7%

Structures above that have an aryl methoxy group, in the order listed:
SMILES	inhibition
COc1ccc(N2C(=O)c3cccc4cccc(c34)C2=O)nn1	inconclusive: 92.3%
COc1ccc(-n2nnnc2SCc2nc3ccccc3s2)cc1	inactive: -1.5%
COc1ccc(-n2c(C)c(C(C)=O)c3cc(O)ccc32)cc1	inconclusive: 88.5%
COc1ccc(C(=O)CSc2nc3nc(C)cc(C)n3n2)cc1OC	inactive: -72.8%
COc1cc(NC(=O)c2cc3ccccc3o2)c(OC)cc1Cl	inactive: 0.2%
COc1cc(C(=O)Nc2cc(C)ccn2)cc(OC)c1OC	inconclusive: 75.7%
CCN(CC)Cc1c(O)ccc2c([N+](=O)[O-])c(C)n(-c3ccc(OC)cc3)c12	active: 70.6%
CCN(CC)Cc1cc(CC(C(N)=O)C(N)=O)ccc1OC	inconclusive: 84.8%
COc1ccc(C(CC(=O)O)NC(=O)c2ccco2)cc1OC (stereo not drawn)	inactive: 51.5%
COc1ccc(C2NC(=O)c3ccccc3O2)c(OC)c1OC (stereo not drawn)	inconclusive: 79.1%
COc1ccc(OCC(=O)Nc2ccc(S(=O)(=O)N3CCOCC3)cc2)cc1	active: 87%

(list continues)

SMILES	inhibition
c1ccc2[nH]c(CSc3ncnc4c3oc3ccccc34)nc2c1	active: 74.8%
CN(C)C(=O)Nc1ccc(F)cc1F	inconclusive: 74.9%
CCn1c(=S)[nH]c2nc3c(cc2c1=O)CCCC3	active: 71.1%
O=C(CCNS(=O)(=O)c1ccc(Br)s1)N1CCN(c2ccccc2)CC1	inactive: -37.5%
CSc1nncc(-c2ccc(F)cc2)n1	inactive: -1%
Cc1ccc2c(c1)c1c(n2CC(O)Cn2c(C)nc3ccccc32)/C(=N\O)CCC1 (stereo not drawn)	active: 100%
Cc1ccc(-c2c(C)n([O-])c3c([n+]2=O)CCCC3)o1	inactive: -24.3%
CCOC(=O)c1cnc(SC)nc1Sc1cc(Cl)ccc1Cl	inactive: 26.2%
CC(=O)c1c[nH]c2ccc(C)cc2c1=O	inactive: -6.2%
CCOc1ccc(N2C(=O)CN=C2Nc2ccccc2F)cc1	active: 96.6%
Cc1cccc2c1N(CC(=O)OC(C)C)C(=O)C2=O	inconclusive: 77.1%
c1ccc(-c2nc(CSc3nnc(-c4cccs4)o3)cs2)cc1	inactive: 7.7%
COC(=O)c1ccccc1NC(=O)c1cnn2c(C(F)F)cc(C3CC3)nc12	active: 75.7%
O=C(Cn1cc2c(n1)CCCC2)NCC1CCCO1 (stereo not drawn)	inconclusive: 72.3%
CCC(C)(C)n1nnnc1CN1CCN(C(c2ccccc2)c2ccccc2)CC1	inactive: 61.1%
Cc1ccc(NC(=O)Cn2nnc(C(=O)NCc3ccco3)c2N)cc1	active: 71.1%
N#CC1=C(SCC(=O)NC23CC4CC(CC(C4)C2)C3)NC(=O)C(C#N)C12CCCCC2 (stereo not drawn)	inconclusive: 76.3%
O=S1(=O)c2cccc3cccc(c23)N1Cc1ccc(-c2nnco2)cc1	inactive: -14.3%
Cc1ccc2c(c1)N(CCC(=O)NCCCOC(C)C)C(=O)C(C)O2 (stereo not drawn)	inactive: -16.6%
NC(=O)COc1ccc(=O)n(-c2ccccc2)n1	inactive: 18.4%
CCCN1CCN(CCCNC(=O)c2cc3c(=O)n(C)c4ccccc4c3n2C)CC1	inactive: -32.6%
O=CN1CCN(C(=O)c2ccccc2F)CC1	inactive: -68.6%
CCOCCCn1c(=S)[nH]c2cc(C(=O)NCCN(CC)CC)ccc2c1=O	inactive: -48.9%
Cc1nnc(SCC(=O)Nc2ccc(S(=O)(=O)N3CCCC3)cc2)n1N	inactive: -3.7%
Cc1nc(SCCO)c2oc3ccccc3c2n1	inactive: 13.7%

SMILES	inhibition
Cc1csc(SCC(=O)NC(=O)NCc2ccccc2)n1	active: 77.9%
Cc1cc(C)cc(N2CCCn3c2nc2c3c(=O)n(CCN3CCOCC3)c(=O)n2C)c1	inactive: -17%
CCCCCn1nc(C)c2c(C)cc(=O)[nH]c21	inactive: 6.7%
O=C(NC1(C(=O)NC2CCCCC2)CCCCC1)c1ccc2c(c1)OCO2	inconclusive: 78.5%
CCCN(CCC)c1nc(NC2CCN(C(=O)OCC)CC2)nc(OC)n1	inactive: 16.9%
COc1ccccc1NC(=O)c1c(NC(=O)c2ccco2)sc2c1CCC2	inactive: 9%
COc1ccc(Cl)cc1C(=O)NCC#N	inactive: 27.9%
O=S(=O)(c1cccc(-c2cn3cccnc3n2)c1)N1CCCCCC1	inactive: -4.3%
CCOC(=O)N=S(=O)(Oc1ccc([N+](=O)[O-])cc1)c1ccccc1 (stereo not drawn)	active: 78.3%
CCN(c1ccc2c(c1)OCO2)S(=O)(=O)c1cc(Br)cc2c1N(C(C)=O)CC2	inactive: 4.1%
CCOC(=O)c1cc2c(c(CSc3nc4ccccc4c(=O)n3Cc3ccco3)c1)OCOC2	inconclusive: 78.8%
CCCc1cc(C(=O)Cc2ccc(C(=O)OCC)o2)c(O)cc1O	inconclusive: 79.7%
O=C(c1cccc(F)c1)N1CCN(C(=O)c2cc(-c3ccc(Cl)cc3Cl)on2)CC1	inconclusive: 91.1%
CCCCn1nc(-c2ccccc2)c2nc3ccccc3nc21	active: 73.9%
O=C(Cc1ccccc1)NCc1nc2ccccc2[nH]1	active: 87.6%
CN(C)CCNC(=O)c1cc2ccccc2oc1=O	active: 73.6%
COc1ccc(N2CC(C(=O)O)CC2=O)cc1 (stereo not drawn)	inactive: 0.8%
COc1ccc(C(CNC(=O)c2ccc(OCC3CCCO3)cc2)N2CCOCC2)cc1 (stereo not drawn)	inactive: 3.2%
NCCCCCc1nnc(SC/C=C/c2ccccc2)o1	inactive: 20.7%
O=C(CSc1nc2ccsc2c(=O)n1NC(=O)c1ccccc1)NCc1ccco1	active: 70%
CNc1nc(NC)nc(-n2c(C(F)(F)F)nc3ccccc32)n1	inconclusive: 80.8%
CN(C)c1ccc(CNC23CN4CN(CN(C4)C2)C3)cc1	inconclusive: 85.6%
CCC(C)C(=O)Nc1nc(C)c(-c2csc(Nc3cc(Cl)ccc3OC)n2)s1 (stereo not drawn)	active: 71.9%

Some of these compounds in order of count of non-hydrogen atoms, rising.
SMILES	inhibition
NCCCCCc1nnc(SC/C=C/c2ccccc2)o1	inactive: 20.7%
CCOC(=O)N=S(=O)(Oc1ccc([N+](=O)[O-])cc1)c1ccccc1 (stereo not drawn)	active: 78.3%
O=C(NC1(C(=O)NC2CCCCC2)CCCCC1)c1ccc2c(c1)OCO2	inconclusive: 78.5%
